Test results: PMC8301015
Results are given in words; binding and its absence hold for the method and conditions named. In cells and extracts the contact can be indirect. Here binding means that the protein was enriched with, or labelled near, the bait; the list need not be complete. Sequences can lack the tags named with a protein. Each block holds one binder with its values, some of them ahead of it.

Molecular target: T1, AbxC (atypical BrxC; DR_1832), C-terminal His x 6 tag (Deinococcus radiodurans) (UniProt Q9RTD3)
T1 sequence: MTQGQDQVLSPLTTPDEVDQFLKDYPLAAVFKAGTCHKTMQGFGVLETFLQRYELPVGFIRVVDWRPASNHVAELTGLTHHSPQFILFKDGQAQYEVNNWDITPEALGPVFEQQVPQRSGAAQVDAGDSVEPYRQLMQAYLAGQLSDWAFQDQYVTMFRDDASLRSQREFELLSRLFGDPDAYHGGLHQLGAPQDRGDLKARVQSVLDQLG
Test: affinity purification with mass spectrometry; AbxC immobilised on CNBr-activated Sepharose 4B; 10 mg D. radiodurans cell lysate, overnight at 4 °C; washed with 100 mM Tris pH 8.0, 0.5 M NaCl; eluted with 10 mM DTT; SDS-PAGE bands, in-gel trypsin, nLC-MS-MS; only the target purified

binding: binds
B1: acetyl-CoA acetyltransferase (DR_1072), endogenous (enzyme, UniProt Q9RVF7 1-393)
chain: MSKAVIVAASRTPTGKFLGALTDVPAVELGAITLRETLRRSGMPAELVEEVIMGQVVQAGCGQNPARQAALRAGVSHEAGALTINKVCGSGLKAVMLAAQSIRAGDQQAVLAGGMESMSNAPHLLPGARKGYRLGHATVLDANTHDGLWCSINDEGMGLTGERVAEKYSIGREEQDAYATGSHRKAVAAAQGGLFKDEIVPVTIKGRKGDVIVDTDEGPRADTSEETLGKLKPAFKKDGSVTAGNAPGLNDGAASLLVVSEELAQAHELTPLAEIVDYASGGLAPEWVMMTPVPATQKLLKKMNIQAGDVDLWELNEAFSVQSLAVARELGLDAERVNVNGGAVALGHPIGASGARILVTLLSALKQQDKELGVATLCMGGGNGLALAVRRLG

binding: binds
B2: proline dehydrogenase (DR_0814), endogenous (enzyme, UniProt Q9RW55 1-310)
chain: MIDQLYRKAVLTVAERPQVEQLARQKMWNLAERFVAGESIESAIQAVQALERDGIAGNLDLLGEFIDSPAKCTEFADDVIKLIEAAHAAGIKPYVSIKLSSVGQGKDENGEDLGLTNARRIIAKAKEYGGFICLDMEDHTRVDVTLEQFRTLVGEFGAEHVGTVLQSYLYRSLGDRASLDDLRPNIRMVKGAYLEPATVAYPDKADVDQNYRRLVFQHLKAGNYTNVATHDERIIDDVKRFVLAHGIGKDAFEFQMLYGIRRDLQKQLAAEGYRVRVYLPYGRDWYAYFSRRIAETPRNAAFVVQGMLKG
